Source: US20200179335A1, “TREATMENT OF DISEASES ASSOCIATED WITH A DYSREGULATION OF THE mTOR PATHWAY” (BIOCODEX, priority 2017, published 2020)
At least one structure is not confirmed: it was looked up by name or label, or the drawing left a doubt.

What was measured:
[1] = system: Akt (P13K-Akt, upstream modulator of the mTOR pathway); test: Western blot of Akt phosphorylation in hippocampus of pentylenetetrazol-treated rats; format: in vivo, rat; conditions: rats pretreated i.p. 30 min before pentylenetetrazol 80 mg/kg s.c.
Experimental: (§1) The mTOR pathway has been studied at two levels (i) an upstream level of regulation with the P13K-Akt, a modulator of the mTOR pathway and (ii) a downstream level with the ribosomal protein S6, the substrate of the S6 kinase, a direct downstream effector of the mTOR pathway. Adult male Sprague-Dawley rats (Janvier, 220-250 g, n=24, 7 weeks old) were used in this study. They were housed 2 per cage (Techniplast ref. 1291), and maintained in a 12 h light/dark cycle (light ON at 7 AM). Food and water were provided ad libitum. The experiments were conducted in accordance with the European Recommendations (directive 2010/63/EU) for the use and care of laboratory animals. The experimental protocol has been approved by the ethics committee. […] The protein concentration of each sample was determined by a BCA protein assay. […] Signals were detected by enzyme chemiluminescence (Vilber Lourmat Fusion FX5 system) and quantitatively analyzed with the Bio-1 D software (Vilber Lourmat, France). […] Each membrane was also stripped (RestoreTM western blot stripping buffer, Thermoscientific) and reprobed to detect beta-actin protein levels, a control for the total quantity of protein deposited. […] The difference between groups was assessed by a two-way ANOVA followed by a Holm-Sidak multiple comparison (factor pretreatment=tween or STP, factor treatment=NaCl or PTZ). […]

[2] = system: ribosomal protein S6 (downstream effector of the mTOR pathway); test: Western blot of S6 protein phosphorylation in hippocampus of pentylenetetrazol-treated rats; format: in vivo, rat; conditions: rats pretreated i.p. 30 min before pentylenetetrazol 80 mg/kg s.c.
Experimental: as §1

## COC[C@H]1OC(=O)c2coc3c2[C@@]1(C)C1=C(C3=O)[C@@H]2CCC(=O)[C@@]2(C)C[C@H]1OC(C)=O [wortmannin]
[1]
  band of phosphorylated Akt in western blot (FIG. 1): no band was visible
[2]
  band of phosphorylated S6 protein in western blot (FIG. 3): No band was visible
